According to PubChem BioAssay AID720625 (Broad Institute, 2013):
Some of the results follow. Where no call is shown, the source marks the result inconclusive.

Assay: caspase 3/7 apoptosis readout in HRAS cells, mechanism study for HRAS target identification, cell-based, caspase 3/7 luminescence, plate reader, dry powder (AID 720625)
Settings: caspase 3/7 apoptosis luminescence, multiple timepoints, at 35 µM (top of the series)

COc1cccc2c1C(=O)c1c(O)c3c(c(O)c1C2=O)C[C@@](O)(C(=O)CO)C[C@@H]3OC1C[C@H](N)[C@H](O)[C@H](C)O1 (stereo partly drawn)
caspase activation: -4.18%

CO[C@H]1C[C@@H]2CC[C@@H](C)[C@@](O)(O2)C(=O)C(=O)N2CCCC[C@H]2C(=O)O[C@H]([C@H](C)C[C@@H]2CC[C@@H](O)[C@H](OC)C2)CC(=O)[C@H](C)/C=C(\C)[C@@H](O)[C@@H](OC)C(=O)[C@H](C)C[C@H](C)/C=C/C=C/C=C/1C
caspase activation: 11.7%

Cc1onc(C(=O)N2CCN(C(c3ccc(Cl)cc3)c3ccc(Cl)cc3)CC2)c1[N+](=O)[O-]
caspase activation: 16.3%

C#CCCCC(=O)NCCOCCOCCOc1ccc(N(C(=O)CCl)C(C(=O)NCCc2ccccc2)c2cccs2)cc1Cl (stereo not drawn)
caspase activation: 24.9%

Cc1onc(C(=O)N2CCN(C(c3ccc(Cl)cc3)c3ccc(OCCOCCOCCNC(=O)OC(C)(C)C)cc3)CC2)c1[N+](=O)[O-] (stereo not drawn)
caspase activation: 5.07%

CCC(=O)N(c1ccc(OC)c(Cl)c1)C(C(=O)NCCc1ccccc1)c1cccs1 (stereo not drawn)
caspase activation: 20.9%

O=C(NCCOCCOCCOc1ccc(N(C(=O)CCl)C(C(=O)NCCc2ccccc2)c2cccs2)cc1Cl)c1ccc(COC2C#CCCCCC2)cc1 (stereo not drawn)
caspase activation: 3.3%

CC(C)(C)OC(=O)NCCOCCOCCOc1ccc(N(C(=O)CCl)C(C(=O)NCCc2ccccc2)c2cccs2)cc1Cl (stereo not drawn)
caspase activation: 2.2%
